Measured values taken from paper PMC3595218.
No constants are given. Whether binding was seen depends on the method and setting. In cells and extracts the contact can be indirect.

Chains of the proteins cited; added tags and fusions are not shown. Lines headed by an entry give the natural chain unless they say otherwise; changes in a name come on top. Residues count along the entry.
UniProt P02647, residues 19-267: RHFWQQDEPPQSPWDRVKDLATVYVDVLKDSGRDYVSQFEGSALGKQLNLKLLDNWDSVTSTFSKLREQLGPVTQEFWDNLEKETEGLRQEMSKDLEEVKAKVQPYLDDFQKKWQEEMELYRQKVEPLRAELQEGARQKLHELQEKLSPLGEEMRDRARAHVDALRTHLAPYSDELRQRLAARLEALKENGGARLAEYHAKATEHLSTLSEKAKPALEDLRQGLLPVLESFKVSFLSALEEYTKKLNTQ
UniProt Q15465: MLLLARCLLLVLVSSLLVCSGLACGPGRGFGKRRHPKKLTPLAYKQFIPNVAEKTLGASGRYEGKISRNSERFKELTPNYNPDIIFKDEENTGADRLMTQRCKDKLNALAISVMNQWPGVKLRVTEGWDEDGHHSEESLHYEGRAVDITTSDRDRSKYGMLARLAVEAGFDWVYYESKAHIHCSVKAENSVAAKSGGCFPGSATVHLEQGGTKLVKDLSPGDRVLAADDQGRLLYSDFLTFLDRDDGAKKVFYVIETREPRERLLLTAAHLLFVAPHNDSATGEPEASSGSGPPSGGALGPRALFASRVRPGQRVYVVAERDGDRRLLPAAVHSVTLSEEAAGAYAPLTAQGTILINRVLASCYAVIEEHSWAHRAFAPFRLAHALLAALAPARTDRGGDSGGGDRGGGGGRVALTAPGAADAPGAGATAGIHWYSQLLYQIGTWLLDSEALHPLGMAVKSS

Target: human high-density lipoprotein (human) (UniProt P02647)
Test: co-IP; supernatants of transfected HeLa cells grown 2 days in DMEM + 1% ITS with VLDL, LDL or HDL; 50 mM Tris pH 7.4; overnight with Protein-G agarose and antibodies to apoB or apoA1; washed with 50 mM Tris pH 7.4 + 0.15 M NaCl; WB; only the target purified

## Shh-N^C24S (from UniProt Q15465) (ligand)
  binding: no binding
